According to PubChem BioAssay AID493014 (National Center for Advancing Translational Sciences (NCATS), 2011):
Some of the results follow. These are further read-outs of the screen, such as a control signal, another cell line or another target. No call is given for them. The list favours compounds with an active or inconclusive main result. The note in brackets gives the kind of curve behind each potency; many fits are weak.

Test: qHTS Assay to Find Inhibitors of Chronic Active B-Cell Receptor Signaling
Conditions: ABC-DLBCL IkBa-CBG/CBR reporter, luminescence ratio (green luciferase fused to IkBa over red control in TMD8 lymphoma cells), 4 h
Outline: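 Doxycycline induced both beetle luciferases in TMD8 lymphoma cells; IKK-driven degradation limits the IkappaBalpha-fused green signal, while red luminescence normalises for cell number and nonspecific effects. Compounds tested up to 46 uM, 4 hrs.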

[1] = measured here: CBR red luminescence, cell number
[2] = measured here: IkBa-CBG green luminescence

SMILES	AC50 [1]	AC50 [2]
CCOC(=O)c1oc2ccccc2c1COC(=O)CNC(=O)c1ccc(C)cc1	6.51 µM [rising, single point]	–
Cc1ccc(NC(=O)/C(=C/c2ccco2)c2ccccc2)c(C)c1	18.4 µM [rising, partial curve]	–
CC(C)c1nc(CN(C)C(=O)N[C@H](C(=O)N[C@@H](Cc2ccccc2)C[C@H](O)[C@H](Cc2ccccc2)NC(=O)OCc2cncs2)C(C)C)cs1	35.5 µM [falling, single point]	–
Cc1ccc(C(=O)N/C(=C\c2ccco2)C(=O)N2CCSCC2)cc1C	15.8 µM [rising, partial curve, poor fit]	–
COc1cc2ncc(S(=O)(=O)c3ccccc3)c(N3CCC4(CC3)OCCO4)c2cc1OC	10 µM [falling, partial curve, poor fit]	–
CC1=C2C(=O)OC(c3ccoc3)C2(C)CCC1 (configuration not stated)	20.6 µM [falling, partial curve]	25.9 µM [rising, partial curve, poor fit]
CCOC(=O)c1ccc(NC(=S)Nc2ccc(Cl)cn2)cc1	0.398 µM [falling, full curve, poor fit]	–
CC(=O)N1CCc2cc(C(=O)CN3CCN(c4ccccn4)CC3)ccc21	1.26 µM [rising, full curve, poor fit]	–
C/C(CC(=O)Nc1ccc(Cl)cc1Cl)=N\NC(=O)c1ccco1	20.6 µM [falling, single point]	–
Cc1ccc2c(cnn2C(=O)CCCC(=O)NCc2ccc(F)cc2)c1	11.2 µM [rising, partial curve, poor fit]	–
Cc1nc(NC(=O)c2ccco2)sc1C(=O)O	0.794 µM [falling, full curve]	–
CCCc1noc2c1C(c1cc(Br)ccc1F)C(C#N)=C(N)N2 (configuration not stated)	22.4 µM [falling, single point]	–
Cc1ccc(C(=O)c2coc3ccc(O)c(Cl)c23)cc1	1.84 µM [falling, partial curve, poor fit]	–
Cn1c(SCC(=O)c2ccccc2)nnc1-c1ccco1	16.4 µM [falling, single point]	–
COc1ccc2nc(C)cc(N/N=C/c3ccc(F)cc3)c2c1	11.2 µM [falling, partial curve]	–
COc1cc(NC(=O)Cc2cccs2)ccc1-n1cnnn1	1.84 µM [rising, full curve, poor fit]	–
COc1cc(NC(=S)NC(=O)c2cc(C)cc(C)c2)ccc1NC(=O)c1cccs1	18.4 µM [rising, single point]	–
O=C(CC(O)(C(F)(F)F)C(F)(F)F)Nc1ccc(Cl)c(Cl)c1	2.59 µM [falling, full curve]	–
CC/C(=N/NC(=O)c1ccccc1)c1ccc(OCCN2CCOCC2)cc1	3.66 µM [falling, full curve]	–
Cc1ccc(NC2CCCN(C(=O)c3ccc4[nH]ccc4c3)C2)cc1C (configuration not stated)	35.5 µM [falling, single point]	–

Single entries from the results shown:
For AC50 [1], CC(=O)N1CCc2cc(C(=O)CN3CCN(c4ccccn4)CC3)ccc21 reads 1.26 µM [rising, full curve, poor fit]
For AC50 [1], CCOC(=O)c1ccc(NC(=S)Nc2ccc(Cl)cn2)cc1 reads 0.398 µM [falling, full curve, poor fit]

(listing goes on)

SMILES	AC50 [1]	AC50 [2]
Cc1cc(C)c2nc(SCCc3ccccc3)nc(C)c2c1	0.291 µM [rising, partial curve, poor fit]	–
O=C(Nc1nccs1)c1ccc(Cl)s1	13 µM [falling, partial curve, poor fit]	–
CCOC(=O)Cc1csc(NC(=O)Nc2ccc(OC(F)(F)F)cc2)n1	11.2 µM [falling, partial curve, poor fit]	–
CCc1cc(C(=O)O)c(NC(=O)/C=C/c2ccc(OC)cc2)s1	0.1 µM [rising, full curve, poor fit]	–
CCOC(=O)N1CCN(C(c2ccccc2)c2sc3nc(C)nn3c2O)CC1 (configuration not stated)	23.1 µM [rising, single point]	–
CCc1nn(-c2ccccc2)c2c1-c1cc(OC)c(OC)cc1C1(N2)C(=O)Nc2ccccc21 (configuration not stated)	0.366 µM [falling, full curve, poor fit]	–
Cc1ccsc1-c1nc(CSCC(=O)NCc2ccc3c(c2)OCO3)c(C)o1	29.1 µM [falling, single point]	–
COc1ccc(/C=C/C(=O)c2ccccc2)c(OC)c1	10 µM [falling, partial curve]	–
COc1ccc(OCCOCCN2CCOCC2)cc1	3.26 µM [falling, single point]	–
N#CCC(=O)N/N=C\c1cc(Br)ccc1OC/C=C/c1ccccc1	0.447 µM [rising, partial curve, poor fit]	–
O=C(C[n+]1ccc2ccccc2c1)c1ccc(NC(=O)c2ccccc2)cc1	35.5 µM [falling, single point]	–
Cc1ccc(S(=O)(=O)Nc2cccc3c2O[C@H](CN(C)Cc2ccc(-c4ccccc4)cc2)[C@@H](C)CN([C@H](C)CO)C3=O)cc1	20.6 µM [falling, partial curve, poor fit]	–
COc1ccc(CNC(=O)C/C(C)=N/NC(=O)c2cc(OC)cc(OC)c2)cc1	12.6 µM [falling, partial curve]	11.2 µM [falling, partial curve]
Cc1cc(C)c(C)c(S(=O)(=O)N2C(=S)NC(=O)C2CC(C)C)c1C (configuration not stated)	0.0058 µM [falling, full curve, poor fit]	–
O=[N+]([O-])/C(C(Cl)=C(Cl)Cl)=C(\Nc1ccc(F)cc1)n1cncn1	18.4 µM [falling, single point]	–
O=Cc1c(NCCN2CCOCC2)c2ccccc2[nH]c1=O	11.2 µM [falling, partial curve]	–
Cc1ccc(C(=O)NCCN2C3=NC[C@H](C(C)C)N3C[C@H]2Cc2ccc(O)cc2)cc1Br	10 µM [falling, partial curve, poor fit]	–
O=c1cc(-c2c(F)c(F)c(F)c(F)c2F)oc2ccccc12	18.4 µM [falling, single point]	–
CCCN1C(=O)C(=O)c2cc(Cl)ccc21	18.4 µM [rising, partial curve]	16.4 µM [falling, partial curve]
